Like-named read-outs stand apart in the source and are kept apart here. Results are given in words; binding and its absence hold for the method and conditions named. Binding seen in cells or lysates may run through a third protein. Some results given as binding are weak or reduced against the parent protein; the word gives no strength. Tags and fused reporters may be left off the sequences shown.
T1: MYC-tagged mutant SMOC2 (p.Leu359Arg) (human) (UniProt Q9H3U7)
T1 sequence: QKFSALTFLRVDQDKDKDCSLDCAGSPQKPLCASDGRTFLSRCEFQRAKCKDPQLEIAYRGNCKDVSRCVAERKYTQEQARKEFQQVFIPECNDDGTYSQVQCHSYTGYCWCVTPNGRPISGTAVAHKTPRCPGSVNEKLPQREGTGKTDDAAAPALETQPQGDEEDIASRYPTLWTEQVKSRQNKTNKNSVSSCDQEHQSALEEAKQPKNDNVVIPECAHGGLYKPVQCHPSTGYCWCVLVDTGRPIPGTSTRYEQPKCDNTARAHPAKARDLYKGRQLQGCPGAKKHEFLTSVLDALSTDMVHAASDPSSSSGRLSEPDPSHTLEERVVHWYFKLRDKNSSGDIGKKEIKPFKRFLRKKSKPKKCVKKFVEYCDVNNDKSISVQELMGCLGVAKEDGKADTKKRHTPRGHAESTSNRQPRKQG

By UniProt entry, the sequences of proteins in these tests, tags left out. Where a name states a change or a piece, a line headed by the entry shows the natural chain unless it says otherwise. Residues count along the entry.
UniProt P49747, 21-757: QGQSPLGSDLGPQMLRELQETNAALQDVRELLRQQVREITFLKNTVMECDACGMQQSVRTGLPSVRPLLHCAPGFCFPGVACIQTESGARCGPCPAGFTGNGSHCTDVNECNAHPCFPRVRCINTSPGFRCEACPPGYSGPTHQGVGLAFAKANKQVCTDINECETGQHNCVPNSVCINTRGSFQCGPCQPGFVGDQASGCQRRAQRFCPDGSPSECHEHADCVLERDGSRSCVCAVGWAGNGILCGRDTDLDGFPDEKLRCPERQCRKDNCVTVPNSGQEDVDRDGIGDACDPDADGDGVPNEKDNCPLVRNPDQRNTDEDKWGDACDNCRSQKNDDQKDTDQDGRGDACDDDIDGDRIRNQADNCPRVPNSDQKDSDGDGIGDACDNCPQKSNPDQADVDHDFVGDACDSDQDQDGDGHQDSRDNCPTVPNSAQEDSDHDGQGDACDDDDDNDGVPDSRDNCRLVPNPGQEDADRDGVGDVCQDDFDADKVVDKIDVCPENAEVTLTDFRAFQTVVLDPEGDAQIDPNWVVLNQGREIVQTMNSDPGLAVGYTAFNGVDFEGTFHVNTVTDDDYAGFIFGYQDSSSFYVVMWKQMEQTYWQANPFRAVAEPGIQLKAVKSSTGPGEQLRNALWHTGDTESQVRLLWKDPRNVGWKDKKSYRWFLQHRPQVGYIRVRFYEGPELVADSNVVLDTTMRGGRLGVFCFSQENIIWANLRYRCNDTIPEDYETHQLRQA
UniProt P20849, 24-921: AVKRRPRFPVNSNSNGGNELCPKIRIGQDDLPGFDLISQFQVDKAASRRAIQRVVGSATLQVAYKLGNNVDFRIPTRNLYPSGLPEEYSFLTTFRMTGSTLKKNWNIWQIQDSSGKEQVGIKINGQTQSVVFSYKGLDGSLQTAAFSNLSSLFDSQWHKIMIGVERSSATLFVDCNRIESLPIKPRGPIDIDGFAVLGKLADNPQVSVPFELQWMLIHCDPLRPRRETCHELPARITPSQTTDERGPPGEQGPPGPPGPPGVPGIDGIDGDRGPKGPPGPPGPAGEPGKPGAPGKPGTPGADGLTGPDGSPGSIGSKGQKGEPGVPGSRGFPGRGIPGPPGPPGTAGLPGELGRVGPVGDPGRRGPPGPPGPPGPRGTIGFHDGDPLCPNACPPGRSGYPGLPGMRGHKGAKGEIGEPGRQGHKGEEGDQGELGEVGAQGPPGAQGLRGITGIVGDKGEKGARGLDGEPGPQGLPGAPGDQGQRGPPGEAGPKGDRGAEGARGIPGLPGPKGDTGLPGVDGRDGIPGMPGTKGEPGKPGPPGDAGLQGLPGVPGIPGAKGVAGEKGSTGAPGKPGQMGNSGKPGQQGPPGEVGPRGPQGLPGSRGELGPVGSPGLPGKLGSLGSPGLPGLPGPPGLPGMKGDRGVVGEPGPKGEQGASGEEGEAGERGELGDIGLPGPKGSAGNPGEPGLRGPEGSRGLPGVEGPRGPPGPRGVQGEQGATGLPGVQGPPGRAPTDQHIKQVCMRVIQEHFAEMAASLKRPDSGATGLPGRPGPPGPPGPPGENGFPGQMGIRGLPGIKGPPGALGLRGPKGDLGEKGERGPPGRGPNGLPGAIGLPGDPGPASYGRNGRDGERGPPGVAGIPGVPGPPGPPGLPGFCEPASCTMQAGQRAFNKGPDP

T2: MYC-tagged wild-type SMOC2 (SPARC-related modular calcium binding 2) (human) (UniProt Q9H3U7)
T2 sequence: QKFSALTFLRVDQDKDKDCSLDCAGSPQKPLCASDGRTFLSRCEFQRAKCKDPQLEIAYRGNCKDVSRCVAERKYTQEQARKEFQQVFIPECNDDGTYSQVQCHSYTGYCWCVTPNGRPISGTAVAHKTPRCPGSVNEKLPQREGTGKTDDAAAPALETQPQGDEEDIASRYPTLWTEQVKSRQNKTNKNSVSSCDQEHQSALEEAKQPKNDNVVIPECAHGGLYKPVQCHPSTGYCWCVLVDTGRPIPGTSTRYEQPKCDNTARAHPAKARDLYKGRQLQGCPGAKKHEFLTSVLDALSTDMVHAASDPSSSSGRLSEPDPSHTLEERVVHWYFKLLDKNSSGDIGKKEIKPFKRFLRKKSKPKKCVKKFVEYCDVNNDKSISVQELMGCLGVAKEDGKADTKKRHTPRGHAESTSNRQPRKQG


Experiments:
Assay in all cases: co-IP
[1] = biological target: T1, MYC-tagged mutant SMOC2 (p.Leu359Arg) (human)
[2] = biological target: T2, MYC-tagged wild-type SMOC2 (SPARC-related modular calcium binding 2) (human)
[3] = biological target: T1, MYC-tagged mutant SMOC2 (p.Leu359Arg) (human); remark: listed apart in the source
[4] = biological target: T2, MYC-tagged wild-type SMOC2 (SPARC-related modular calcium binding 2) (human); remark: listed apart in the source

binding [1] | binding [2] | binding [3] | binding [4] | Molecule
binds | binds |  |  | HA-tagged COMP (collagen oligomeric matrix protein) (from UniProt P49747 21-757)
no binding | binds |  |  | HA-tagged COL9A1 (collagen type IX alpha-1) (from UniProt P20849 24-921)
 |  | binds | binds | HA-tagged MATN3 (matrilin-3) (protein, UniProt O15232 29-486) DPVARPGFRRLETRGPGGSPGRRPSPAAPDGAPASGTSEPGRARGAGVCKSRPLDLVFIIDSSRSVRPLEFTKVKTFVSRIIDTLDIGPADTRVAVVNYASTVKIEFQLQAYTDKQSLKQAVGRITPLSTGTMSGLAIQTAMDEAFTVEAGAREPSSNIPKVAIIVTDGRPQDQVNEVAARAQASGIELYAVGVDRADMASLKMMASEPLEEHVFYVETYGVIEKLSSRFQETFCALDPCVLGTHQCQHVCISDGEGKHHCECSQGYTLNADKKTCSALDRCALNTHGCEHICVNDRSGSYHCECYEGYTLNEDRKTCSAQDKCALGTHGCQHICVNDRTGSHHCECYEGYTLNADKKTCSVRDKCALGSHGCQHICVSDGAASYHCDCYPGYTLNEDKKTCSATEEARRLVSTEDACGCEATLAFQDKVSSYLQRLNTKLDDILEKLKINEYGQIHR
